Results deposited as PubChem BioAssay AID743121 (NCATS, 2013).
The deposit covers about 26,000 reagents; below is a random part of them. In the full data, 167 (0.63%) are marked active. 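Calls are per gene from RSA p-values that are not deposited; an individual active-marked siRNA can sensitise only weakly.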 The numbers tell different reagents against one gene apart.

Screen: 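Knock-downs that sensitise breast cancer cells to camptothecin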 (primary screen)
Cells: MDA-MB-231 cells, a human breast cancer line
Reagent: single siRNA against human genes, 20 nM siRNA (0.8 pmol per well)
Timing: 120 h (drug added 48 h after transfection, read 72 h later)
Challenge: camptothecin 20 nM (about EC30) for 72 h; vehicle 0.1% DMSO in parallel plates
Read-out: 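Cell viability by ATP luminescence (CellTiter-Glo) as % of non-targeting siRNA wells, and the log2 ratio of viability without drug over viability with camptothecin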
Reading the numbers: log2 vehicle/camptothecin viability: higher = stronger sensitisation to camptothecin; viability with camptothecin and viability without drug: higher = more viable cells
Call rule: 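Active genes have an RSA gene-level p-value below 0.001, computed from the ratios of their separate siRNAs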

| gene knocked down | siRNA no. | log2 vehicle/camptothecin viability | viability with camptothecin (% of control) | viability without drug (% of control) | Outcome |
| --- | --- | --- | --- | --- | --- |
| SIRT3 | 1 | -0.348 | 54.2 | 42.6 | inactive |
| SIRT3 | 2 | -0.0652 | 55.4 | 53 | inactive |
| SIRT3 | 3 | -0.533 | 69.2 | 47.8 | inactive |
| SIRT3 | 4 | -0.173 | 91.1 | 80.8 | inactive |
| PAX8 | 1 | 0.116 | 17.5 | 18.9 | inactive |
| PAX8 | 2 | -0.477 | 92.4 | 66.4 | inactive |
| PAX8 | 3 | -0.0311 | 59.7 | 58.4 | inactive |
| PAX8 | 4 | 1.33 | 21 | 52.8 | inactive |
| PAX8 | 5 | -0.369 | 97.3 | 75.3 | inactive |
| PAX8 | 6 | 0.299 | 45.4 | 55.8 | inactive |
| CD3G | 1 | -0.0891 | 61.2 | 57.6 | inactive |
| CD3G | 2 | -0.635 | 67.2 | 43.3 | inactive |
| CD3G | 3 | -0.0541 | 65.4 | 63 | inactive |
| CD3G | 4 | -0.392 | 81.4 | 62.1 | inactive |
| XPO1 | 1 | -0.0121 | 83.5 | 82.8 | inactive |
| XPO1 | 2 | 0.901 | 11.3 | 21 | inactive |
| XPO1 | 3 | -0.308 | 39.9 | 32.2 | inactive |
| TBCK | 1 | -0.216 | 98.2 | 84.5 | inactive |
| TBCK | 2 | -0.179 | 92.7 | 81.8 | inactive |
| TBCK | 3 | -0.378 | 119 | 91.8 | inactive |
| NMUR2 | 1 | -0.33 | 39.9 | 31.8 | inactive |
| NMUR2 | 2 | 0.147 | 39.1 | 43.3 | inactive |
| NMUR2 | 3 | -0.416 | 53.9 | 40.4 | inactive |
| NMUR2 | 4 | -0.734 | 57.8 | 34.8 | inactive |
| ACR | 1 | 0.153 | 63.9 | 71 | inactive |
| ACR | 2 | -0.14 | 52.5 | 47.7 | inactive |
| ACR | 3 | 0.324 | 49 | 61.3 | inactive |
| KCNS3 | 1 | 0.251 | 82.7 | 98.4 | inactive |
| KCNS3 | 2 | -0.274 | 63.8 | 52.7 | inactive |
| KCNS3 | 3 | -0.244 | 99.9 | 84.4 | inactive |
| KCNS3 | 4 | -0.134 | 97.1 | 88.5 | inactive |
| GPR39 | 1 | -0.194 | 95.2 | 83.2 | inactive |
| GPR39 | 2 | 0.0583 | 90.4 | 94.1 | inactive |
| GPR39 | 3 | -0.134 | 42.2 | 38.5 | inactive |
| GPR39 | 4 | -0.372 | 104 | 80.5 | inactive |
| IL20RA | 1 | -0.557 | 87.8 | 59.7 | inactive |
| IL20RA | 2 | -0.0487 | 102 | 99.1 | inactive |
| IL20RA | 3 | -0.154 | 104 | 93.3 | inactive |
| IL20RA | 4 | 0.427 | 41.8 | 56.3 | inactive |
| QDPR | 1 | -0.0949 | 106 | 99.2 | inactive |
| QDPR | 2 | 0.0502 | 61.5 | 63.7 | inactive |
| IL13RA1 | 1 | -0.217 | 62.9 | 54.1 | inactive |
| IL13RA1 | 2 | -0.459 | 97.3 | 70.8 | inactive |
| IL13RA1 | 3 | -0.195 | 97.4 | 85 | inactive |
| IL13RA1 | 4 | -0.175 | 107 | 95.2 | inactive |
| GRIA1 | 1 | 0.0831 | 72.1 | 76.4 | inactive |
| GRIA1 | 2 | 0.00576 | 98.1 | 98.5 | inactive |
| GRIA1 | 3 | -0.225 | 107 | 91.4 | inactive |
| GRIA1 | 4 | -0.557 | 80.9 | 55 | inactive |
| PEPD | 1 | 0.219 | 42.6 | 49.6 | inactive |
| PEPD | 2 | -0.155 | 55.1 | 49.5 | inactive |
| PEPD | 3 | -0.293 | 86.3 | 70.5 | inactive |
| PEPD | 4 | -0.187 | 85.5 | 75.1 | inactive |
| PRDM8 | 1 | -0.0647 | 58.9 | 56.3 | inactive |
| PRDM8 | 2 | -0.205 | 84 | 72.9 | inactive |
| PRDM8 | 3 | 0.00243 | 83.7 | 83.8 | inactive |
| PRDM8 | 4 | -0.222 | 74.6 | 63.9 | inactive |
| UBE3B | 1 | -0.131 | 107 | 97.4 | inactive |
| UBE3B | 2 | -0.82 | 63.4 | 35.9 | inactive |
| UBE3B | 3 | -0.433 | 61.3 | 45.4 | inactive |
| UBE3B | 4 | 0.298 | 65.1 | 80 | inactive |
| HNRNPA2B1 | 1 | 0.248 | 63.7 | 75.6 | inactive |
| HNRNPA2B1 | 2 | 0.166 | 62.8 | 70.5 | inactive |
| HNRNPA2B1 | 3 | 0.159 | 70.3 | 78.5 | inactive |
| HNRNPA2B1 | 4 | 0.0191 | 97.9 | 99.2 | inactive |
| XPO7 | 1 | -0.12 | 96.7 | 89 | inactive |
| XPO7 | 2 | 0.08 | 59.5 | 62.9 | inactive |
| XPO7 | 3 | -0.33 | 84.1 | 66.9 | inactive |
| XPO7 | 4 | 0.0625 | 95.8 | 100 | inactive |

Not a retest: entries from further up.
| gene knocked down | siRNA no. | log2 vehicle/camptothecin viability | viability with camptothecin (% of control) | viability without drug (% of control) | Outcome |
| --- | --- | --- | --- | --- | --- |
| PEPD | 3 | -0.293 | 86.3 | 70.5 | inactive |
| PEPD | 4 | -0.187 | 85.5 | 75.1 | inactive |
| PRDM8 | 1 | -0.0647 | 58.9 | 56.3 | inactive |
| PRDM8 | 2 | -0.205 | 84 | 72.9 | inactive |
| PRDM8 | 3 | 0.00243 | 83.7 | 83.8 | inactive |
| PRDM8 | 4 | -0.222 | 74.6 | 63.9 | inactive |
| UBE3B | 1 | -0.131 | 107 | 97.4 | inactive |
| UBE3B | 2 | -0.82 | 63.4 | 35.9 | inactive |
